In patent publication US20160046678A1 (ZYNGENIA, published 2016):
No constants are given. Whether binding was seen depends on the method and setting. Some results given as binding are weak or reduced against the parent protein; the word gives no strength.

What follows are binders tested against ErbB2 (UniProt P04626) (assay: MRD identification, Example 48).
WSGWCLGKAGWGHCGGLI [EGB507] was tested, and the binding was “binds”.
With WSGWCFFGSHWGHCFGSP [EGB508] the binding was “binds”.
In the case of WSGWCLLDAEWGHCSGLI [EGB509], the binding is reported as “binds”.
With WSGWCLSNDGWGHCWGLM [EGB510] the binding was “binds”.
In the case of WSGWCLSGTGWGHCYGLH [EGB511], the binding is reported as “binds”.
In the case of WSGWCLVGTQWSFCSGLI [EGB513], the binding is reported as “binds”.
For WSGWCEKEFLWTFCSGTI [EGB514], the binding was “binds”.
For WSGWCESDTHWSFCSGQL [EGB515], the binding was “binds”.
WSGWCEGVSEWSFCSGLI [EGB516] was tested, and the binding was “binds”.
WSGWCLGLDGWDHCYGRP [EGB518] was tested, and the binding was “binds”.
WSGWCFFGDRWGHCHGQP [EGB519] was tested, and the binding was “binds”.
With WSGWCFVGASWGHCYGMI [EGB520] the binding was “binds”.
In the case of WSGWCLSDAGWGACGGAS [EGB521], the binding is reported as “binds”.
With WSGWCLEWNGWGHCSGIP [EGB522] the binding was “binds”.
With WSGWCEGELQWFFCSGTI [EGB523] the binding was “binds”.
In the case of WSGWCEGEHHWYFCRGNF [EGB524], the binding is reported as “binds”.
For WSGYCEGEQQWFYCSGQV [EGB526], the binding was “binds”.
WSGWCENKVGWSFCSGHI [EGB527] was tested, and the binding was “binds”.
WSGWCEGERTWHFCSGPL [EGB528] was tested, and the binding was “binds”.
For WSGWCCFGTSWGYCHGPP [EGB530], the binding was “binds”.
For WSGWCLLDAGWGHCKGML [EGB531], the binding was “binds”.
In the case of WSGWCFYGHGWGHCHGTP [EGB532], the binding is reported as “binds”.
With WSGWCFDYTRWGHCSGMP [EGB533] the binding was “binds”.
For WSGWCLFSAGWGHCSGLI [EGB534], the binding was “binds”.
In the case of WSGWCEGELQWSFCWGHI [EGB535], the binding is reported as “binds”.
WSGWCEEEHQWSFCSGYI [EGB537] was tested, and the binding was “binds”.
In the case of WSGWCEGEREWYFCSGFF [EGB538], the binding is reported as “binds”.
In the case of WSGWCEGKLKWNYCSGYL [EGB539], the binding is reported as “binds”.
